{"source": "patent US7772179B2", "about": "“Photodynamic therapy using chemiluminescence and a ligand-photosensitiser conjugate” (priority 2005, dated 2010)", "key": {"FL cells [1]": {"system": "FL cells", "settings": "in the dark, 0-3 μM"}, "FL cells [2]": {"system": "FL cells", "experiment": "LTC cytotoxicity assay (PDT with ambient fluorescent light), trypan blue exclusion", "type": "cell-based", "settings": "optimization of the LTC cytotoxicity assay; cell line not stated"}}, "note": "At least one structure is not confirmed: it was looked up by name or label, or the drawing left a doubt."}
{"molecule": "CC1=C(CCC(=O)O)c2cc3[nH]c(cc4nc(cc5[nH]c(cc1n2)c(C)c5C(C)O)C(C)=C4C(C)O)c(C)c3CCC(=O)O", "note": "(centres unmarked) [Hp, hematoporphyrin]", "values": [{"measurement": "effect on cell viability, alone without luminol", "setting": "FL cells [1]", "result": "little effect on cell viability"}, {"measurement": "exposure time required for maximum activity", "setting": "FL cells [2]", "result": "about 2 hr"}]}
